Laboratory results published in patent US20150231199A1, “PEPTIDES AND THEIR USES” (priority 2012, published 2015).
Part of at least one peptide drawing is inferred or uncertain, most often the ends. Positions of bridges follow the written chain, without caps; N, C: chain ends. Residues, ends and D or L forms follow the SMILES beside them. Chains are numbered I, II in the order given.

Legend:
[1] = Bodipy TR cadavarine (BC) displacement assay; format: binding; conditions: FIG. 15A
[2] = Bodipy TR cadavarine (BC) displacement assay; format: binding; conditions: FIG. 15B

CC(C)[C@H](NC(=O)[C@H](CCCCN)NC(=O)[C@H](CCCNC(=N)N)NC(=O)CNC(=O)[C@@H](N)CCCNC(=N)N)C(=O)N[C@H](C(=O)N[C@@H](CCCNC(=N)N)C(=O)N[C@@H](CCCNC(=N)N)C(=O)NCCCC[C@H](NC(=O)[C@H](CCCNC(=N)N)NC(=O)[C@H](CCCNC(=N)N)NC(=O)[C@@H](NC(=O)[C@@H](NC(=O)[C@H](CCCCN)NC(=O)[C@H](CCCNC(=N)N)NC(=O)CNC(=O)[C@@H](N)CCCNC(=N)N)C(C)C)C(C)C)C(=O)N[C@@H](CCCCN)C(=O)O)C(C)C [Peptide V2D, (RGRKVVRR)2KK] (I: H-RGRKVVRRKK-OH / II: H-RGRKVVRR; amide I:9-II:C)
strength of binding to LPS relative to B2088—99 [1]: 2 times | strength of binding to Lipid A relative to B2088—99 [2]: > 10 times
